# System: HepG2
# Experiment: Cytotoxicity against human HepG2 cells assessed as growth inhibition after 72 hrs by MTT assay
# Format: functional, cell-based
# Conditions: HepG2, 72 h
structure (smiles),measurement,value
COc1cccc2c1C(=O)c1c(O)c3c(c(O)c1C2=O)C[C@@](O)(C(=O)CO)C[C@@H]3O[C@H]1C[C@H](N)[C@H](O)[C@H](C)O1 [DOXORUBICIN],IC50,720 nM
